In patent US20140271469A1 (Stanford University, published 2014):
These are yes or no findings as the source states them, for the method shown. Some entries that bind do so weakly or less than the wild type.

Protein sequences, listed by entry. Tags and fused reporters are not part of them. Lines headed by an entry give the natural chain unless they say otherwise; changes in a name come on top.
UniProt P06756: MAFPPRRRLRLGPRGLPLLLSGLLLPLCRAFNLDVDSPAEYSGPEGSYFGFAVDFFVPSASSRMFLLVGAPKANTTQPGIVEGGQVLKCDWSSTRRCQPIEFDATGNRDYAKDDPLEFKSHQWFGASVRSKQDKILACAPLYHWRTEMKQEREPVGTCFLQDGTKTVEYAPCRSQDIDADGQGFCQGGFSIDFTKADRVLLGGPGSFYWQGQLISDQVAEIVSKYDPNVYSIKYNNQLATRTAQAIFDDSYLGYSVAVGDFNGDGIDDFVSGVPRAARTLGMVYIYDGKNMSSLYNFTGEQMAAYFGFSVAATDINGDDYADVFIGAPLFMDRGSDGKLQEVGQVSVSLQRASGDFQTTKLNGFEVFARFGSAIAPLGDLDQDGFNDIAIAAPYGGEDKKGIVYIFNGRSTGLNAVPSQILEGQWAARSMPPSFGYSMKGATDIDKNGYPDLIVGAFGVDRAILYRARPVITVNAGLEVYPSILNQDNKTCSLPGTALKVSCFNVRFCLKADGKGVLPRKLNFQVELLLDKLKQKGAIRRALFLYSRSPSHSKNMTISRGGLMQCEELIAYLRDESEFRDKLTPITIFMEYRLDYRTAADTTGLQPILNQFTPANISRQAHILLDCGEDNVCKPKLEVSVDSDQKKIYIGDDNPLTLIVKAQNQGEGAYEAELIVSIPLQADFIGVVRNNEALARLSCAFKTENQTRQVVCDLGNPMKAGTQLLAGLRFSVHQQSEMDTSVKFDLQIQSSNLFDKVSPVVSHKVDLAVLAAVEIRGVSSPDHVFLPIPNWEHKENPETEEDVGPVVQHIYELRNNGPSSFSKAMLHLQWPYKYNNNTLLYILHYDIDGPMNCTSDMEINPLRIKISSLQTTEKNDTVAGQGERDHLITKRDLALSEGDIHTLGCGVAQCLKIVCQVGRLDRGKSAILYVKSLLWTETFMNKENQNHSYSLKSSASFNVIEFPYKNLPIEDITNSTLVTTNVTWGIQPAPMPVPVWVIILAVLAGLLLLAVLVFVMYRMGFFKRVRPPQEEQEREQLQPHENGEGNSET
UniProt P18564: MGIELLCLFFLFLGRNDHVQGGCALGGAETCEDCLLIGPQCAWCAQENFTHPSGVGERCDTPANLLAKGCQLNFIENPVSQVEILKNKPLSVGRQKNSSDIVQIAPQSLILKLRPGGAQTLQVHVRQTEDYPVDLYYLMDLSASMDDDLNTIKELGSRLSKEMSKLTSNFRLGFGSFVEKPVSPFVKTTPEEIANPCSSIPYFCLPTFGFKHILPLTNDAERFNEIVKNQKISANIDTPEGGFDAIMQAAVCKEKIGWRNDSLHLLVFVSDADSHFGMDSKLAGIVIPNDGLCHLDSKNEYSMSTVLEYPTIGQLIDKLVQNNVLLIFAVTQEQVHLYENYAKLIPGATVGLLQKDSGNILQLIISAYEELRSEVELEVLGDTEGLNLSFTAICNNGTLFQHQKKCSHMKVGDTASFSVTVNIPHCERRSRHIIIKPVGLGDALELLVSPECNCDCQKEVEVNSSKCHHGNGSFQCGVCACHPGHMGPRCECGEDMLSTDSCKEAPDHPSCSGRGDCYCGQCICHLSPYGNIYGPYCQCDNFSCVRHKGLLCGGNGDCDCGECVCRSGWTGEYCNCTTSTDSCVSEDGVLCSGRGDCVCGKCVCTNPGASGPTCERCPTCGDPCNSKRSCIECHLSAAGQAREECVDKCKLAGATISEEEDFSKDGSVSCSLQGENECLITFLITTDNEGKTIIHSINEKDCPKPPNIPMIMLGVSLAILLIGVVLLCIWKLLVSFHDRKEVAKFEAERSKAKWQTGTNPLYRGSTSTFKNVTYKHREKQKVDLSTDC

How the values were obtained:
[1] = target: T1, Recombinant human integrin αvβ6 (human, UniProt P06756 31-992; P18564 22-707); assay: flow cytometry, 10 nM integrin αvβ6, relative to R02
T1 construct: Bought soluble heterodimer; also called alpha-v-beta-6; avb6

[2] = target: Recombinant human integrin αvβ6 (human) (UniProt P06756); assay: as above
[3] = target: Recombinant human integrin αvβ6 (human) (UniProt P06756); assay: plate competition against immobilised biotinylated A20 (FIG. 2B)
[4] = target: T2, Native integrin αvβ6 on cells (BxPC-3, A431) (human) (UniProt P06756+P18564); assay: cell capture on peptide-coated wells, crystal violet (FIG. 2C)
[5] = target: T1, Recombinant human integrin αvβ6; assay: protein capture on neutravidin wells coated with biotinylated peptide, 10 nM integrin (FIG. 2A)
[6] = target: T2, Native integrin αvβ6 on cells (BxPC-3, A431) (human); assay: cell uptake assay, A431 and BxPC-3 cells (FIG. 5)
[7] = target: T2, Native integrin αvβ6 on cells (BxPC-3, A431) (human); assay: cell uptake assay with radiolabeled peptide (FIG. 5)

Q: With GCRSLARTDLDHLRGRCEEDSDCLAECICEENGFCG [E02] as the binder, how does the binding [1] read?
A: binds

Q: How did the binding [2] turn out when GCRSLARTDLDHLRDRCSSDSDCLAECICLENGFCG [S02] was run?
A: binds

Q: And the binding [3]?
A: binds

Q: How did the binding [1] turn out when GCRSLARTDLDHLRGRCSSDSDCSAECICLENGFCG [S12] was run?
A: binds

Q: GCRSLARTDLDHLRGRCSSDSDCLAECICSENGFCG [S22] was tested. Which binding [1] did it give?
A: binds

Q: How did the binding [1] turn out when GCRSLARTDLDHLRGRCSSDSDCSAECICSENGFCG [S32] was run?
A: binds

Q: With GCRSLARTDLDHLRDRCSSDSDCLAECICLENGFCG (PEO4-Biotin coupled to the peptide (its sole primary amine is the N-terminus)) [Biotinylated S02] as the binder, how does the binding [4] read?
A: binds

Q: What about the binding [5] of the same binder?
A: binds

Q: With GCRSLARTDLDHLRGRCEEDSDCLAECICEENGFCG (DOTA conjugated through the N-terminus amine, radiolabeled with 64Cu) [64Cu-DOTA-E02] as the binder, how does the binding [6] read?
A: binds

Q: And the binding [7]?
A: binds

Q: Which binding [6] does the source give for GCRSLARTDLDHLRDRCSSDSDCLAECICLENGFCG (DOTA conjugated through the N-terminus amine, radiolabeled with 64Cu) [64Cu-DOTA-S02] here?
A: binds

Q: And the binding [7]?
A: binds
